# Source: the supplement of paper PMC8728848
# The list shows a part of the results.
# B1: Intelectin-1a (Mus musculus) (protein)
# chain: AEWSHPQFEKAEENLDTNRWGNSFFSSLPRSCKEIKQEHTKAQDGLYFLRTKNGVIYQTFCDMTTAGGGWTLVASVHENNMRGKCTVGDRWSSQQGNRADYPEGDGNWANYNTFGSAEAATSDDYKNPGYFDIQAENLGIWHVPNKSPLHNWRKSSLLRYRTFTGFLQHLGHNLFGLYKKYPVKYGEGKCWTDNGPALPVVYDFGDARKTASYYSPSGQREFTAGYVQFRVFNNERAASALCAGVRVTGCNTEHHCIGGGGFFPEGNPVQCGDFASFDWDGYGTHNGYSSSRKITEAAVLLFYR
# Columns and labels:
# Assay in all cases: glycan array binding signal (z-score within array); higher = stronger binding
# Details in all cases: glycan notation: IUPAC condensed, linker removed
# [1] = target: Neu5Ac(a2-3)Gal(b1-3)GalNAc(b1-4)[Neu5Ac(a2-3)]Gal(b1-4)Glc
# In short: (§1)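 The binding signal is a Z-score computed within each array and averaged over linkers. Arrays of the same protein sequence at different concentrations or buffers were also averaged together. Data originate from 3228 arrays in the Consortium for Functional Glycomics database, kept only where the protein sequence was available.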
# [2] = target: Neu5Ac(a2-3)Gal(b1-3)GalNAc(b1-4)[Neu5Ac(a2-8)Neu5Ac(a2-3)]Gal(b1-4)Glc
# In short: as §1
# [3] = target: Neu5Ac(a2-3)Gal(b1-3)GalNAc6S
# In short: as §1
# [4] = target: Neu5Ac(a2-3)Gal(b1-3)GlcNAc
# In short: as §1
# [5] = target: Neu5Ac(a2-3)Gal(b1-3)GlcNAc(b1-2)Man(a1-3)[GlcNAc(b1-4)][Neu5Ac(a2-3)Gal(b1-3)GlcNAc(b1-2)Man(a1-6)]Man(b1-4)GlcNAc(b1-4)GlcNAc
# In short: as §1
# [6] = target: Neu5Ac(a2-3)Gal(b1-3)GlcNAc(b1-3)Gal(b1-3)GlcNAc
# In short: as §1
# [7] = target: Neu5Ac(a2-3)Gal(b1-3)GlcNAc(b1-3)Gal(b1-4)GlcNAc
# In short: as §1
# [8] = target: Neu5Ac(a2-3)Gal(b1-3)GlcNAc(b1-3)GalNAc
# In short: as §1
# [9] = target: Neu5Ac(a2-3)Gal(b1-3)GlcNAc(b1-6)GalNAc
# In short: as §1
# [10] = target: Neu5Ac(a2-3)Gal(b1-3)GlcNAc6S
# In short: as §1
# [11] = target: Neu5Ac(a2-3)Gal(b1-3)[Fuc(a1-4)]GlcNAc
# In short: as §1
# [12] = target: Neu5Ac(a2-3)Gal(b1-3)[Fuc(a1-4)]GlcNAc(b1-3)Gal(b1-3)[Fuc(a1-4)]GlcNAc
# In short: as §1
# [13] = target: Neu5Ac(a2-3)Gal(b1-3)[Fuc(a1-4)]GlcNAc(b1-3)Gal(b1-4)[Fuc(a1-3)]GlcNAc
# In short: as §1
# [14] = target: Neu5Ac(a2-3)Gal(b1-3)[Neu5Ac(a2-3)Gal(b1-4)]GlcNAc
# In short: as §1
# [15] = target: Neu5Ac(a2-3)Gal(b1-3)[Neu5Ac(a2-6)]GalNAc
# In short: as §1
# [16] = target: Neu5Ac(a2-3)Gal(b1-3)[Neu5Ac(a2-6)]GlcNAc(b1-3)[Fuc(a1-3)[Gal(b1-4)]GlcNAc(b1-6)]Gal(b1-4)Glc
# In short: as §1
# Neu5Ac(a2-3)Gal(b1-4)Glc = target: Neu5Ac(a2-3)Gal(b1-4)Glc
# In short: as §1
# [17] = target: Neu5Ac(a2-3)Gal(b1-4)GlcNAc
# In short: as §1
# [18] = target: Neu5Ac(a2-3)Gal(b1-4)GlcNAc(b1-2)Man
# In short: as §1
# [19] = target: Neu5Ac(a2-3)Gal(b1-4)GlcNAc(b1-2)Man(a1-3)[GlcNAc(b1-2)Man(b1-4)GlcNAc(b1-2)Man(a1-6)]Man(b1-4)GlcNAc(b1-4)GlcNAc
# In short: as §1
# [20] = target: Neu5Ac(a2-3)Gal(b1-4)GlcNAc(b1-2)Man(a1-3)[Neu5Ac(a2-3)Gal(b1-4)GlcNAc(b1-2)Man(a1-6)]Man(b1-4)GlcNAc(b1-4)[Fuc(a1-6)]GlcNAc
# In short: as §1
# [21] = target: Neu5Ac(a2-3)Gal(b1-4)GlcNAc(b1-2)Man(a1-3)[Neu5Ac(a2-6)Gal(b1-4)GlcNAc(b1-2)Man(a1-6)]Man(b1-4)GlcNAc(b1-4)GlcNAc
# In short: as §1
# [22] = target: Neu5Ac(a2-3)Gal(b1-4)GlcNAc(b1-2)[Neu5Ac(a2-3)Gal(b1-4)GlcNAc(b1-6)]Man(a1-6)[Neu5Ac(a2-3)Gal(b1-4)GlcNAc(b1-2)Man(a1-3)]Man(b1-4)GlcNAc(b1-4)GlcNAc
# In short: as §1
# [23] = target: Neu5Ac(a2-3)Gal(b1-4)GlcNAc(b1-3)Gal
# In short: as §1
# [24] = target: Neu5Ac(a2-3)Gal(b1-4)GlcNAc(b1-3)Gal(b1-3)GlcNAc
# In short: as §1
# [25] = target: Neu5Ac(a2-3)Gal(b1-4)GlcNAc(b1-3)Gal(b1-4)GlcNAc
# In short: as §1
# [26] = target: Neu5Ac(a2-3)Gal(b1-4)GlcNAc(b1-3)Gal(b1-4)GlcNAc(b1-3)Gal(b1-4)GlcNAc
# In short: as §1
# [27] = target: Neu5Ac(a2-3)Gal(b1-4)GlcNAc(b1-3)Gal(b1-4)[Fuc(a1-3)]GlcNAc
# In short: as §1
# [28] = target: Neu5Ac(a2-3)Gal(b1-4)GlcNAc(b1-3)GalNAc
# In short: as §1
# [29] = target: Neu5Ac(a2-3)Gal(b1-4)GlcNAc(b1-3)[Neu5Ac(a2-3)Gal(b1-4)GlcNAc(b1-6)]GalNAc
# In short: as §1
# [30] = target: Neu5Ac(a2-3)Gal(b1-4)GlcNAc(b1-6)GalNAc
# In short: as §1
# [31] = target: Neu5Ac(a2-3)Gal(b1-4)GlcNAc(b1-6)[Gal(b1-3)]GalNAc
# In short: as §1
# [32] = target: Neu5Ac(a2-3)Gal(b1-4)GlcNAc(b1-6)[Neu5Ac(a2-3)Gal(b1-3)]GalNAc
# In short: as §1
# [33] = target: Neu5Ac(a2-3)Gal(b1-4)GlcNAc6S
# In short: as §1
# [34] = target: Neu5Ac(a2-3)Gal(b1-4)[Fuc(a1-3)]GlcNAc
# In short: as §1
# [35] = target: Neu5Ac(a2-3)Gal(b1-4)[Fuc(a1-3)]GlcNAc(b1-3)Gal
# In short: as §1
# [36] = target: Neu5Ac(a2-3)Gal(b1-4)[Fuc(a1-3)]GlcNAc(b1-3)Gal(b1-4)GlcNAc
# In short: as §1
binder,measurement,setting,value
B1,glycan array binding signal (z-score),[1],-0.317
same,glycan array binding signal (z-score),[2],-0.991
same,glycan array binding signal (z-score),[3],-0.429
same,glycan array binding signal (z-score),[4],0.572
same,glycan array binding signal (z-score),[5],-0.723
same,glycan array binding signal (z-score),[6],0.289
same,glycan array binding signal (z-score),[7],-0.948
same,glycan array binding signal (z-score),[8],-0.237
same,glycan array binding signal (z-score),[9],0.808
same,glycan array binding signal (z-score),[10],-0.221
same,glycan array binding signal (z-score),[11],0.303
same,glycan array binding signal (z-score),[12],-0.408
same,glycan array binding signal (z-score),[13],-0.748
same,glycan array binding signal (z-score),[14],-0.162
same,glycan array binding signal (z-score),[15],-0.222
same,glycan array binding signal (z-score),[16],-0.837
same,glycan array binding signal (z-score),Neu5Ac(a2-3)Gal(b1-4)Glc,-0.067
same,glycan array binding signal (z-score),[17],-1.12
same,glycan array binding signal (z-score),[18],1.73
same,glycan array binding signal (z-score),[19],-0.002
same,glycan array binding signal (z-score),[20],1.34
same,glycan array binding signal (z-score),[21],1.58
same,glycan array binding signal (z-score),[22],0.884
same,glycan array binding signal (z-score),[23],0.251
same,glycan array binding signal (z-score),[24],-0.402
same,glycan array binding signal (z-score),[25],0.306
same,glycan array binding signal (z-score),[26],-0.49
same,glycan array binding signal (z-score),[27],-0.8
same,glycan array binding signal (z-score),[28],-0.154
same,glycan array binding signal (z-score),[29],0.295
same,glycan array binding signal (z-score),[30],-0.713
same,glycan array binding signal (z-score),[31],-0.75
same,glycan array binding signal (z-score),[32],-1.21
same,glycan array binding signal (z-score),[33],0.113
same,glycan array binding signal (z-score),[34],0.398
same,glycan array binding signal (z-score),[35],0.133
same,glycan array binding signal (z-score),[36],0.655
